{"sequences": {"note": "The chains behind the UniProt entries cited, without tags or fusion partners.", "UniProt Q9C0C7": "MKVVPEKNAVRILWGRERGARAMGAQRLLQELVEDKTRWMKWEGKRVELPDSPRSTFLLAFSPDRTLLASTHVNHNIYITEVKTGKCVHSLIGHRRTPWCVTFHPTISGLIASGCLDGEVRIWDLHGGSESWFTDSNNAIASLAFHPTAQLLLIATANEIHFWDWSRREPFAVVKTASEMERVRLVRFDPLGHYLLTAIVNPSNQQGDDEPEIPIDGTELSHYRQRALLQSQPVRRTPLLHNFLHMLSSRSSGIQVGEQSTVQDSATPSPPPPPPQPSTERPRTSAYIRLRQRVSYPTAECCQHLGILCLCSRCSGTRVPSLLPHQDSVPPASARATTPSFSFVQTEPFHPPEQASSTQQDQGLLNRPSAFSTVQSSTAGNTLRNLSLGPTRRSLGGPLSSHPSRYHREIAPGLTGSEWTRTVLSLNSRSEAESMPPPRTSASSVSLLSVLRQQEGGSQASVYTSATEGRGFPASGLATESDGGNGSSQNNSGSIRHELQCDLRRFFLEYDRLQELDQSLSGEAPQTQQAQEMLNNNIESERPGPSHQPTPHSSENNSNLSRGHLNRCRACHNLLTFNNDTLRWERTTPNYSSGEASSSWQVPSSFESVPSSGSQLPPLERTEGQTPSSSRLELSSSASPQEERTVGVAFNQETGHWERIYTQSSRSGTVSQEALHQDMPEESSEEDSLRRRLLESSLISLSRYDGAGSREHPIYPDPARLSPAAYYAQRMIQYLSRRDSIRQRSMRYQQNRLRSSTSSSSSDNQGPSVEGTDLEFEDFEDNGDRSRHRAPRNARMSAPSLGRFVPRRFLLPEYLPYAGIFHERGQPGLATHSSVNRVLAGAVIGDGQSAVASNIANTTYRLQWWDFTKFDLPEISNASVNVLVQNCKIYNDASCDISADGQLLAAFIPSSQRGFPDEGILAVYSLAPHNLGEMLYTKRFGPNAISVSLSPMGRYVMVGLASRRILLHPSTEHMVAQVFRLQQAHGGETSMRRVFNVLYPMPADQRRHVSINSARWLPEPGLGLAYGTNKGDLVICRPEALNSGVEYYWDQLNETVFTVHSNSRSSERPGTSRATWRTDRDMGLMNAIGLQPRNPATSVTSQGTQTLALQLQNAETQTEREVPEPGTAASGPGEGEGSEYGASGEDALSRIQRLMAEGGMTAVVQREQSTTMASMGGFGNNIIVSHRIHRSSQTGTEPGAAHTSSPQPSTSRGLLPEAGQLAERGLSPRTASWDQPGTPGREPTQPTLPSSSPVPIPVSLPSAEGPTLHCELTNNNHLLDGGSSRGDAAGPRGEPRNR", "UniProt P63167": "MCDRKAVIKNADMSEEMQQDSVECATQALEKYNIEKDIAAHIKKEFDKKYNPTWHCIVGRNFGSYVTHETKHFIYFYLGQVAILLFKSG"}, "source": "paper doi:10.1101/2023.10.13.562240", "biological_target": "Activating molecule in Beclin1-regulated autophagy (AMBRA1), wild type (UniProt Q9C0C7)", "assay": "co-IP", "note": "No constants are given. Whether binding was seen depends on the method and setting. In cells and extracts the contact can be indirect. Some entries that bind do so weakly or less than the wild type.", "data": [{"substance": "dynein light chain (DLC)1 (from UniProt P63167 1-89)", "values": [{"measurement": "binding", "value": "binds"}]}]}
